Assay results reported in patent US11485769B2, “Peptides and combination of peptides for use in immunotherapy and methods for generating scaffolds for the use against pancreatic cancer and other cancers” (Immatics Biotechnologies GmbH, priority 2015, dated 2022).

Legend:
[1] = system: source genes (mRNA) in tumors compared to a panel of normal tissues; assay: Expression profiling of genes encoding the peptides (Affymetrix microarray, expression scores); parameters: species or system human; key: very highly over-expressed in tumors compared to a panel of normal tissues (+++); highly over-expressed in tumors compared to a panel of normal tissues (++); over-expressed in tumors compared to a panel of normal tissues (+); settings: over-expression of the source gene in tumors compared to a panel of normal tissues; Affymetrix microarrays
[2] = system: tumors compared to a panel of normal tissues; assay: Identification and label-free LC-MS quantitation of HLA-presented tumor associated peptides (presentation profiles/scores); parameters: species or system human; key to Peptide Presentation (presentation score): very highly over-presented on tumors compared to a panel of normal tissues (+++); highly over-presented on tumors compared to a panel of normal tissues (++); over-presented on tumors compared to a panel of normal tissues (+); settings: for Peptide Presentation (presentation score): over-presentation on tumors compared to a panel of normal tissues, label-free LC-MS quantitation of HLA peptides

With “137: peptide found in SLC1A5 (gene looked up) (KLGPEGELL; listed as Homo sapiens) [compound 137]” the “Gene Expression (expression score)” value [1] was “+” and the “Peptide Presentation (presentation score)” value (“Peptide Presentation” below) [2] was “+++”.
For “113: peptide found in GFPT2 (gene looked up) (LMMSEDRISL; listed as Homo sapiens) [compound 113]”, the “Gene Expression (expression score)” value [1] was “++”, the “peptide additionally detected on brain cancers (positive/measured samples)” value ([2]; brain cancers) was 5/34 and the “peptide additionally detected on breast cancers (positive/measured samples)” value ([2]; breast cancers) was 3/18. The “peptide additionally found on colon or rectum cancers (positive/measured samples)” value ([2]; colon or rectum cancers) was 2/29, the “peptide additionally detected on esophageal cancers (positive/measured samples)” value ([2]; esophageal cancers) was 2/18 and the “peptide additionally detected on gallbladder or bile duct cancers (positive/measured samples)” value ([2]; gallbladder/bile duct cancers) was 3/17. The “peptide additionally found on head and neck cancers (positive/measured samples)” value ([2]; head and neck cancers) was 1/8, the “peptide additionally detected on liver cancers (positive/measured samples)” value ([2]; liver cancers) was 1/21 and the “peptide additionally detected on lung cancers (positive/measured samples)” value ([2]; lung cancers) was 18/107. The “peptide additionally found on lymph node cancers (positive/measured samples)” value ([2]; lymph node cancers) was 3/20, the “peptide additionally found on pancreas cancers (positive/measured samples)” value ([2]; pancreas cancers) was 1/19 and the “peptide additionally detected on prostate cancers (positive/measured samples)” value ([2]; prostate cancers) was 1/87. The “peptide additionally found on skin cancers (positive/measured samples)” value ([2]; skin cancers) was 2/18, the “peptide additionally detected on urinary bladder cancers (positive/measured samples)” value ([2]; urinary bladder cancers) was 2/15 and the “peptide additionally found on uterus cancers (positive/measured samples)” value ([2]; uterus cancers) was 1/16.
For “153: peptide found in COPG1 (gene looked up) (ALPKEDPTAV; listed as Homo sapiens) [compound 153]”, the “Gene Expression (expression score)” value [1] was “+” and the “Peptide Presentation” value [2] was “+”.
For “140: peptide found in CCNA2 (gene looked up) (SLLNPPETLNL; listed as Homo sapiens) [compound 140]”, the “Gene Expression (expression score)” value [1] was “++” and the “Peptide Presentation” value [2] was “+++”.
“34: peptide found in GFPT2 (gene looked up) (FLEDDDIAAV; listed as Homo sapiens) [compound 34]” was tested, and the “Gene Expression (expression score)” value [1] was “++” and the “Peptide Presentation” value [2] was “+++”.
With “44: peptide found in SLC6A15 (gene looked up) (ILAQVGFSV; listed as Homo sapiens) [compound 44]” the “Gene Expression (expression score)” value [1] was “++” and the “Peptide Presentation” value [2] was “+++”.
With “79: peptide found in FN1 (gene looked up) (VVYEGQLISI; listed as Homo sapiens) [compound 79]” the “Gene Expression (expression score)” value [1] was “+++” and the “Peptide Presentation” value [2] was “+”.
“99: peptide found in PRKDC (gene looked up) (ALESFLKQV; listed as Homo sapiens) [compound 99]” was tested, and the “Gene Expression (expression score)” value [1] was “+” and the “Peptide Presentation” value [2] was “+”.

For some assays here: Expression grades refer to the transcript from which the peptide derives; gene names, where given, were looked up from the sequence.
